These results are taken from article PMC12116771.

In this assay the target is T1, GST-tagged Scd6 (S. cerevisiae) (UniProt P45978).
T1 sequence: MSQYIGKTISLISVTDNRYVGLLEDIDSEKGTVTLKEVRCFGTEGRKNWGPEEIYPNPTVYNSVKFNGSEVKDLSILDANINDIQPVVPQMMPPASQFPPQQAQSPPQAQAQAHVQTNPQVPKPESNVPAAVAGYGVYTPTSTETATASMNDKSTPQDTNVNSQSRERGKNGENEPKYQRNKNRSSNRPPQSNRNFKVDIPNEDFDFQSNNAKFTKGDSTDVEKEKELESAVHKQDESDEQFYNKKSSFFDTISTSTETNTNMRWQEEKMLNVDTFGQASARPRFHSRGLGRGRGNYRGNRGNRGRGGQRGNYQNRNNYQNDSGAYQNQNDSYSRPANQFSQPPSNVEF
Nature of the assay: pull-down; Scd6-GST captured on glutathione sepharose from yeast lysate (10 mM Tris, 150 mM NaCl, 0.5% NP40, diluted 1:1 without NP40), 4 °C for 90 min; blot with anti-GST and anti-eIF4G1; cells untreated or treated with 200 mM HU.

Results are given in words; binding and its absence hold for the method and conditions named. Binding seen in cells or lysates may run through a third protein. Some results given as binding are weak or reduced against the parent protein; the word gives no strength. Sequences can lack the tags named with a protein.

B1: eIF4G1 (protein, UniProt P39935 1-952)
chain: MTDETAHPTQSASKQESAALKQTGDDQQESQQQRGYTNYNNGSNYTQKKPYNSNRPHQQRGGKFGPNRYNNRGNYNGGGSFRGGHMGANSSNVPWTGYYNNYPVYYQPQQMAAAGSAPANPIPVEEKSPVPTKIEITTKSGEHLDLKEQHKAKLQSQERSTVSPQPESKLKETSDSTSTSTPTPTPSTNDSKASSEENISEAEKTRRNFIEQVKLRKAALEKKRKEQLEGSSGNNNIPMKTTPENVEEKGSDKPEVTEKTKPAEEKSAEPEVKQETPAEEGEQGEKGQIKEESTPKVLTFAERLKLKKQQKEREEKTEGKENKEVPVQEETKSAIESAPVPPSEQVKEETEVAETEQSNIDESATTPAIPTKSDEAEAEVEAEAGDAGTKIGLEAEIETTTDETDDGTNTVSHILNVLKDATPIEDVFSFNYPEGIEGPDIKYKKEHVKYTYGPTFLLQFKDKLNVKADAEWVQSTASKIVIPPGMGRGNRSRDSGRFGNNSSRGHDFRNTSVRNMDDRANSRTSSKRRSKRMNDDRRSNRSYTSRRDRERGSYRNEEKREDDKPKEEVAPLVPSANRWVPKFKSKKTEKKLAPDGKTELLDKDEVERKMKSLLNKLTLEMFDAISSEILAIANISVWETNGETLKAVIEQIFLKACDEPHWSSMYAQLCGKVVKELNPDITDETNEGKTGPKLVLHYLVARCHAEFDKGWTDKLPTNEDGTPLEPEMMSEEYYAAASAKRRGLGLVRFIGFLYRLNLLTGKMMFECFRRLMKDLTDSPSEETLESVVELLNTVGEQFETDSFRTGQATLEGSQLLDSLFGILDNIIQTAKISSRIKFKLIDIKELRHDKNWNSDKKDNGPKTIQQIHEEEERQRQLKNNSRSNSRRTNNSSNRHSFRRDAPPASKDSFITTRTYSQRNSQRAPPPKEEPAAPTSTATNMFSALMGESDDEE
As to B1, the binding result is “binds”.
